# According to PubChem BioAssay AID493014 (National Center for Advancing Translational Sciences (NCATS), 2011):
# Hit rate of the full screen: of about 340,000 compounds, about 170 (0.05%) were called active. The shares of active, inactive and inconclusive entries below differ from those in the screen. The call rests on the fitted dose curve; in most records, active means well fitted inhibition curve with a large enough effect in the signal ratio, with a control signal flat (not every such curve was filed as active); inconclusive means small, poorly fitted or top-dose-only effect, or effect the other way, or a change in a side signal; inactive means flat fitted curve, though single readings scatter; the % refers to the signal ratio. A potency beside an inconclusive call is a rough fit, not a confirmed value.
# Assay: qHTS Assay to Find Inhibitors of Chronic Active B-Cell Receptor Signaling;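 on activity change, negative = inhibition: plate controls were basal doxycycline-induced cells for no effect and cells given 10 µM MG132 for full effect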
# Settings: ABC-DLBCL IkBa-CBG/CBR reporter, luminescence ratio (green luciferase fused to IkBa over red control in TMD8 lymphoma cells), 4 h; activity change, negative = inhibition: at 46.1 µM (top of the series)
# Method in brief: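 Cell line TMD8 (human ABC DLBCL), stably expressing tet-inducible CBG68-IkBa fusion and CBR; IMDM/0.5% FBS; cpd up to 46 uM; dox induction, 4 h, 37C/5% CO2; dual luminescence; green/red ratio; MG132 control.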
# Potency means the concentration at half of the fitted maximal effect.
SMILES,Potency,"activity change, negative = inhibition"
COC(=O)[C@@H]1[C@@H](C#N)C2(c3ccccc3-c3ccccc32)N(c2ccc(Cl)cc2)N1C#N,"inconclusive: 23.1 µM [cytotoxic, single point]",–
COc1ccc(N/N=C(/Oc2ccc([N+](=O)[O-])cc2)C(C)=O)cc1,–,inconclusive: 23.8%
CCc1nc2ccccc2nc1N1CCN(S(=O)(=O)c2c(C)cc(Cl)cc2C)CC1,–,inconclusive: 2.63%
O=C(COc1ccc(Br)cc1)Nc1nnc(C2CC2)s1,–,inconclusive: 1.9%
COc1ccccc1NC(=O)C(=O)c1cn(CC(=O)N2CCOCC2)c2ccccc12,"inconclusive: 11.2 µM [falling, partial curve]",–
C[C@@H]1CC[C@]2(C(=O)O)CC[C@]3(C)C(=CCC4[C@]56CC[C@@](O)(OC5)C(C)(C)C6CC[C@]43C)C2[C@H]1C (stereo partly drawn),"inconclusive: 10.3 µM [falling, partial curve]",–
Cc1cccc(N2C(=O)N3[C@H](c4ccc(F)cc4)[C@@H]4C(=O)N(C5CCCCC5)C(=O)[C@@H]4[C@]3(Cc3ccc(Cl)cc3)C2=O)c1,–,inactive: 1.42%
Oc1cccc(Nc2ncnc3c2oc2ccccc23)c1,"inconclusive: 25.1 µM [falling, partial curve]",–
CCOC(=O)c1ccc(NC(=S)N2CCSC2c2ccc(Cl)cc2)cc1 (stereo not drawn),–,inconclusive: -1.81%
CCN(CC)C(=O)CSc1ncnc2c(-c3cccs3)nsc12,–,inconclusive: 16.4%
O=C(NC1CCCC1)c1cc(COc2ccc3ncccc3c2)on1,–,inactive: -13.1%
COc1cccc(C(C)NC(=O)c2c(F)cccc2Cl)c1 (stereo not drawn),–,inconclusive: -0.305%
CCN(C(=O)CC(C)C)c1nnc(Cn2nnc3ccccc32)s1,–,inactive: -0.742%
Cc1ccc(NC(=O)Cn2nc(-c3ccccc3)nc(Cc3ccccc3)c2=O)cc1,–,inconclusive: -17.5%
O=S(=O)(c1ccc(F)cc1)c1snnc1-c1ccccc1,"inconclusive: 28.2 µM [falling, single point]",–
O=c1c2ccccc2nc2ccc(NCc3cccs3)nn12,"inconclusive: 12.6 µM [falling, partial curve]",–
Cc1ccc(NC(=O)CC(=O)Nc2ccc(C)cc2C)c(C)c1,–,inactive: -3.06%
O=C(Nc1ccc2c(c1)OCO2)c1ccc(N2C(=O)c3ccccc3C2=O)cc1,–,inconclusive: -16.3%
COc1cnn(-c2ccccc2)c(=O)c1N(C)C,–,inactive: 8.56%
Cc1cc(C(=O)Nc2c(F)cc(F)cc2Br)n(-c2ccccc2)n1,–,inconclusive: 7.02%
O=C(NNC(=O)C12CC3CC(CC(C3)C1)C2)c1ccccn1,–,inconclusive: -27.4%
CCOc1ccccc1NC(=O)C(OC(=O)c1cnccn1)c1ccccc1 (stereo not drawn),–,inconclusive: 0.943%
Cc1ccc(S(=O)(=O)NCC(=O)OCC(=O)Nc2cccc(S(=O)(=O)NC3=NCCCCC3)c2)cc1,–,inconclusive: -5.5%
CCOC(=O)c1sc(=NC(=O)c2ccc(C)c(C)c2)n(C)c1C,–,inactive: 11.3%
O=C1c2cccc3cccc(c23)C(=O)N1c1ccccn1,–,inactive: -0.226%
CCC(C)C(=O)Nc1nc(C)c(-c2csc(Nc3cc(Cl)ccc3OC)n2)s1 (stereo not drawn),–,inconclusive: -7.91%
CC(=O)Nc1cccc(Nc2nc(-c3cccs3)nc3ccccc23)c1,–,inconclusive: -0.268%

SMILES,Potency,"activity change, negative = inhibition"
CN(C(=O)c1ccc(Oc2ccc([N+](=O)[O-])cc2)cc1)C1CCCCC1,–,inactive: 1.87%
COc1ccc(-n2c(C)c(C(=O)O)c3cc(OC)c4ccccc4c32)cc1,–,inconclusive: -26.8%
O=[N+]([O-])c1cccc(NN=Nc2ccccc2)c1,–,inconclusive: 0.841%
CCOC(=O)c1c(C)[nH]c(C(=O)Nc2ccc(C)c(Cl)c2)c1C,–,inconclusive: -0.805%
Cc1ccccc1/C=N/NC(=O)c1ccc(-n2cnnn2)cc1,"inconclusive: 8.2 µM [falling, partial curve, poor fit]",–
COc1cc(OC)cc(N2C(=O)CC(N3CCC(C(=O)N4CCCCC4)CC3)C2=O)c1 (stereo not drawn),–,inactive: -1%
CCCn1c(SCC(=O)NC2CCCC2)nnc1C(C)C,–,inactive: -10.5%
Cc1nnsc1C(=O)NC1CCCc2c1cnn2-c1ccc(C(C)(C)C)cc1 (stereo not drawn),"inconclusive: 17.8 µM [falling, single point]",–
Cc1nc(-c2ccc(S(=O)(=O)Nc3cc(S(=O)(=O)N(C)C)ccc3C)s2)cs1,–,inactive: -3.13%
CCOC(=O)N1CCN(C(=O)CSCC(=O)Nc2nc(-c3ccc(Cl)s3)cs2)CC1,–,inactive: 5.12%
COc1cc(/C=C2\S/C(=N/S(=O)(=O)c3ccc(C)cc3)NC2=O)c([N+](=O)[O-])cc1OC,"inconclusive: 25.9 µM [falling, partial curve, poor fit]",–
CCOc1ccccc1OCC(=O)OCC(=O)Nc1ncc(Cl)cc1Cl,–,inactive: 1.58%
CN1CCN(Cc2ccc(-c3ccc(Cl)cc3)o2)CC1,–,inactive: 23.3%
Cc1c(NS(C)(=O)=O)c(=O)n(-c2ccccc2)n1C,–,inconclusive: -6.65%
CCOC(=O)c1ccc(S(=O)(=O)N2CCN(C)CC2)cc1,–,inactive: 1.65%
Oc1ccc(C[C@H]2CNCCN2CC2CCCCC2)cc1,–,inactive: -9.22%
Cc1ccc(C(=O)N/C(=C\c2ccc(-c3ccc(Cl)cc3)o2)C(=O)NCCCN(C)C)cc1,–,inconclusive: -16.8%
Nc1nc(-c2ccco2)nn1C(=O)c1ccccc1Cl,"inconclusive: 6.31 µM [falling, single point]",–
Cc1ccc(C)c2[nH]c(=O)c(CCNC(=O)c3cccs3)cc12,–,inconclusive: 4.42%
Brc1cccc2sc(N3CCCC3)nc12,–,inconclusive: 1.51%
CC(=O)Oc1ccc(C(=O)Nc2ccccc2NC(=O)c2ccc(OC(C)=O)cc2)cc1,"inconclusive: 20 µM [falling, partial curve, poor fit]",–
O=C(CN1C(=O)c2cccnc2Oc2ccc(Cl)cc21)NCCCc1ccccc1,–,inconclusive: 3.83%
CCN(CC)C(=O)Cn1nc(C)c2ccccc2c1=O,–,inconclusive: 5.12%
O=C(NC(Cc1cccc(F)c1)C(=O)O)C1CCCCC1 (stereo not drawn),–,inactive: 7.74%
COc1ccc(/C=C/C(=O)O)cc1,–,inactive: 3.41%
CCCSc1nc(C)c2cc(C)cc(C)c2n1,–,inconclusive: -17.5%

# Filtered by structure, the compounds so far containing an NH in an aromatic ring.
SMILES,Potency,"activity change, negative = inhibition"
CCOC(=O)c1c(C)[nH]c(C(=O)Nc2ccc(C)c(Cl)c2)c1C,–,inconclusive: -0.805%
Cc1ccc(C)c2[nH]c(=O)c(CCNC(=O)c3cccs3)cc12,–,inconclusive: 4.42%

# Nothing new here: entries from further up.
SMILES,Potency,"activity change, negative = inhibition"
COc1ccc(/C=C/C(=O)O)cc1,–,inactive: 3.41%
CCCSc1nc(C)c2cc(C)cc(C)c2n1,–,inconclusive: -17.5%
